From paper PMC7668531
No constants are given. Whether binding was seen depends on the method and setting. Binding seen in cells or lysates may run through a third protein. Some entries that bind do so weakly or less than the wild type.

By UniProt entry, the sequences of proteins in these tests, tags left out.
UniProt P07737: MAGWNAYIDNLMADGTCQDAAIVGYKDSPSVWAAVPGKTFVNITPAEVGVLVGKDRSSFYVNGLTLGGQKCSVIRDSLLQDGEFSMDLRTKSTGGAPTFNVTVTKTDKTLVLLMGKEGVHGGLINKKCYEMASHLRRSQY
UniProt P62962: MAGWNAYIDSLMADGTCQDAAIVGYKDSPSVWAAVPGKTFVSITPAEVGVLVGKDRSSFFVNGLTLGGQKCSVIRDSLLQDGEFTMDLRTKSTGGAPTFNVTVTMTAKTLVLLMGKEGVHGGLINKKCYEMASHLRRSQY
UniProt Q921G8: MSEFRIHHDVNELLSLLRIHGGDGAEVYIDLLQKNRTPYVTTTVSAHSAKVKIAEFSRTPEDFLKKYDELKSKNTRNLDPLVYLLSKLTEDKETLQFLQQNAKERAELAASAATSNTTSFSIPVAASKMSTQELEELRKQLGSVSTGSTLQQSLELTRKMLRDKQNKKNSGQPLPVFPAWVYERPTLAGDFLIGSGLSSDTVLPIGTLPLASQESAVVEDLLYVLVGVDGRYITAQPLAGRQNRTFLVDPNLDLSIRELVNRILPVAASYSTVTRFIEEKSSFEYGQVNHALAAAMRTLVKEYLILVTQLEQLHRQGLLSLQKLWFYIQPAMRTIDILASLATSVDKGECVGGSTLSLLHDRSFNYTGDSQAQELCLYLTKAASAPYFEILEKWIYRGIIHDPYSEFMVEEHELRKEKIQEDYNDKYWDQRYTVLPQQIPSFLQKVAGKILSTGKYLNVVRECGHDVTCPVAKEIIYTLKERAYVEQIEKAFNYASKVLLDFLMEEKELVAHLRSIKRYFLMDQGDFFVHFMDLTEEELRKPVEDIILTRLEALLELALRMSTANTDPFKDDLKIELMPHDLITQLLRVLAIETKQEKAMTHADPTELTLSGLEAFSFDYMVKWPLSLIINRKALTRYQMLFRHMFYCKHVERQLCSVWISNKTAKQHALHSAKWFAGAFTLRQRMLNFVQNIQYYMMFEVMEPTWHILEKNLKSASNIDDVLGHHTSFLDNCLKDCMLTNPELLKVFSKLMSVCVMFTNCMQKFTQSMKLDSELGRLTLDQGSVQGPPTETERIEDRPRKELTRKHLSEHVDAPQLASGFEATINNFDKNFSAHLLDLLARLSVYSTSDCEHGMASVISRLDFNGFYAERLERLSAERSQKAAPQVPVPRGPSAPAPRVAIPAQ
UniProt Q9UGJ1: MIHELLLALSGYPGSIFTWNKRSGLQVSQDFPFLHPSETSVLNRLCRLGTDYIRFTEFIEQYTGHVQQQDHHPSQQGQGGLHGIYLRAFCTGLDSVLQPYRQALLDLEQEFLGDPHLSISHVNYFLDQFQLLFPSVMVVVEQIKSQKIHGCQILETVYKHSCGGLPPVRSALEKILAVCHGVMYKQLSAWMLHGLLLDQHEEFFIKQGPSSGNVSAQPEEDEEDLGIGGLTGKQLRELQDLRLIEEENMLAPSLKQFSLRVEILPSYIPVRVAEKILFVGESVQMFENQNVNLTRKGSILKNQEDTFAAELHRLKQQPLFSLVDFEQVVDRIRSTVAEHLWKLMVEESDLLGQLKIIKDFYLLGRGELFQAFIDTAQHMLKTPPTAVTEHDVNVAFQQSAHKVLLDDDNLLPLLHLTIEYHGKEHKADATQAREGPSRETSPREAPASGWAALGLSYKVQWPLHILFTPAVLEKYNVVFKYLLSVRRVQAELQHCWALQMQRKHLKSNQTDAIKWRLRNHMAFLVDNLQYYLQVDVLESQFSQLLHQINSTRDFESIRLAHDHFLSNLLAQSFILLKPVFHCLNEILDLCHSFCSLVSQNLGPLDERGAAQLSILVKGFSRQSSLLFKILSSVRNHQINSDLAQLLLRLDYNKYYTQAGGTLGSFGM
UniProt Q9D4F8: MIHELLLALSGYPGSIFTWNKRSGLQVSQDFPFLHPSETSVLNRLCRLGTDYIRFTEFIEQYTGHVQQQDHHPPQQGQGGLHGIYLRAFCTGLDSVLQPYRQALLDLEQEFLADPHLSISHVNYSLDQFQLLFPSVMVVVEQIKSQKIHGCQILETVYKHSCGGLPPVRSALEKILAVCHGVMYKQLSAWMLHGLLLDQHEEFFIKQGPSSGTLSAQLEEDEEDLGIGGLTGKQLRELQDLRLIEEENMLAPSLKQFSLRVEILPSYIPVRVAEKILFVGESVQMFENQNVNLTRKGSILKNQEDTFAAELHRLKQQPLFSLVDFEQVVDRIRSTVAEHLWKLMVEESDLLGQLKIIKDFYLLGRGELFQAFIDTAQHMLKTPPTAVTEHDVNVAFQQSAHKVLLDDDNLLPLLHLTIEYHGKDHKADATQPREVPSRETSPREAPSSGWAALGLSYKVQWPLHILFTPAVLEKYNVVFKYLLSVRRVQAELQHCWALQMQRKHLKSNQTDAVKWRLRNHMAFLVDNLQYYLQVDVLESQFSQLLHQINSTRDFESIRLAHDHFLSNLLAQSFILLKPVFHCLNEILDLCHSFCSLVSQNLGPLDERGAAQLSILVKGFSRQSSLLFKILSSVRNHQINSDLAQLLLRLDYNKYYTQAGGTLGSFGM
UniProt Q9BSJ2: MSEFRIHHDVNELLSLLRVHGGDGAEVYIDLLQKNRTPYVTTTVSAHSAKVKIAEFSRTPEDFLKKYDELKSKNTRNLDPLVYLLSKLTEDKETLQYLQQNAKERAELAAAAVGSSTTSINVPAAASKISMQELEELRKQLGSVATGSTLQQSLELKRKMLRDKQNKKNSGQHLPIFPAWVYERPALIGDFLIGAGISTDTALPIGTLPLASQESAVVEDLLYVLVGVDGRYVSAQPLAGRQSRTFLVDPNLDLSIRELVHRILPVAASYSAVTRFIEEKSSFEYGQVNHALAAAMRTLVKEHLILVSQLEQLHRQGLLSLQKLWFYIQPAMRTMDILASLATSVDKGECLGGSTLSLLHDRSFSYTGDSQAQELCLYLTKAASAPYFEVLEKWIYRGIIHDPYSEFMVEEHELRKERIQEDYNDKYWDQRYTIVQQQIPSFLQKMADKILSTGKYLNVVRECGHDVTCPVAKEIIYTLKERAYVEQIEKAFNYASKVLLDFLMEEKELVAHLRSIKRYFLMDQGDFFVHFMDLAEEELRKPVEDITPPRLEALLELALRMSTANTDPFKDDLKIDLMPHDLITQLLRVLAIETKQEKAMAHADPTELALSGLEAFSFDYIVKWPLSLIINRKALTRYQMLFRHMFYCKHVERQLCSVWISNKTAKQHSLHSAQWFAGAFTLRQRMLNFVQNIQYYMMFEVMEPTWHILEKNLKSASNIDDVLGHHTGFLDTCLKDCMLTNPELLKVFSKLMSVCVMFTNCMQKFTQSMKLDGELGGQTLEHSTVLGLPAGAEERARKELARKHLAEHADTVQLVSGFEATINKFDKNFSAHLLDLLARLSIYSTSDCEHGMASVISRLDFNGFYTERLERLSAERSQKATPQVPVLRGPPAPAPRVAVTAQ

How the values were obtained:
[1] = molecular target: profilin 1 (Caco-2 cells) (human (endogenous in Caco-2)) (UniProt P07737); assay: co-IP; extracts of Caco-2 cells in RIPA buffer, Protein A beads saturated with Abs to profilin or γ-tubulin; Western blot
[2] = molecular target: profilin 1 (mouse (endogenous in B16)) (UniProt P62962); assay: co-IP; extracts of B16 cells in RIPA buffer, Protein A beads saturated with Abs to profilin, γ-tubulin or GCP2; Western blot
[3] = molecular target: γ-tubulin complex protein 2 (mouse (endogenous in B16)) (UniProt Q921G8); assay: as above

Substance | binding [1] | binding [2] | other results
γ-tubulin complex protein 4 (Caco-2 cells) (from UniProt Q9UGJ1 1-667) | binds |  | 
γ-tubulin complex protein 4 (from UniProt Q9D4F8 1-667) |  | binds | 
profilin 1 (from UniProt P62962 1-140) |  |  | binding [3]: binds
γ-tubulin complex protein 2 (from UniProt Q921G8 1-905) |  | binds | 
γ-tubulin complex protein 2 (Caco-2 cells) (from UniProt Q9BSJ2 1-902) | binds |  | 
